Reference: patent publication US9034323B2, “Method for control of post-prandial glucose” (Halozyme, Inc., priority 2008, dated 2015)

Test: C-terminal heterogeneity of soluble rHuPH20, endoproteinase Asp-N digestion (Example 8)
[1] = C-terminal fragments from Lot HUA0505MA (3D35M cells)
[2] = C-terminal fragments from Lot HUB0701EB (2B2 cells)

D28f (DAFKLPPMETEE; C-terminal peptide cleaved from soluble rHuPH20 aa 431-442; listed as Homo sapiens)
Abundance [1]: 0.0% | Abundance [2]: 0.0%

D28a (DAFKLPPMETEEPQIFY; C-terminal peptide cleaved from soluble rHuPH20 aa 431-447; listed as Homo sapiens)
Abundance [1]: 0.2% | Abundance [2]: 1.9%

D28d (DAFKLPPMETEEPQ; C-terminal peptide cleaved from soluble rHuPH20 aa 431-444; listed as Homo sapiens)
Abundance [1]: 56.1% | Abundance [2]: 27.8%

D28b (DAFKLPPMETEEPQIF; C-terminal peptide cleaved from soluble rHuPH20 aa 431-446; listed as Homo sapiens)
Abundance [1]: 18.4% | Abundance [2]: 46.7%

D28c (DAFKLPPMETEEPQI; C-terminal peptide cleaved from soluble rHuPH20 aa 431-445; listed as Homo sapiens)
Abundance [1]: 11.8% | Abundance [2]: 16.7%

D28e (DAFKLPPMETEEP; C-terminal peptide cleaved from soluble rHuPH20 aa 431-443; listed as Homo sapiens)
Abundance [1]: 13.6% | Abundance [2]: 6.9%
